In paper PMC4574351, “Tubulin cofactors and Arl2 are cage-like chaperones that regulate the soluble αβ-tubulin pool for microtubule dynamics” (eLife, 2015):
Results are given in words; binding and its absence hold for the method and conditions named. Some results given as binding are weak or reduced against the parent protein; the word gives no strength.

T1: Tubulin cofactor E (TBCE), S. cerevisiae Pac2p (S. cerevisiae) (UniProt P39937)
T1 sequence: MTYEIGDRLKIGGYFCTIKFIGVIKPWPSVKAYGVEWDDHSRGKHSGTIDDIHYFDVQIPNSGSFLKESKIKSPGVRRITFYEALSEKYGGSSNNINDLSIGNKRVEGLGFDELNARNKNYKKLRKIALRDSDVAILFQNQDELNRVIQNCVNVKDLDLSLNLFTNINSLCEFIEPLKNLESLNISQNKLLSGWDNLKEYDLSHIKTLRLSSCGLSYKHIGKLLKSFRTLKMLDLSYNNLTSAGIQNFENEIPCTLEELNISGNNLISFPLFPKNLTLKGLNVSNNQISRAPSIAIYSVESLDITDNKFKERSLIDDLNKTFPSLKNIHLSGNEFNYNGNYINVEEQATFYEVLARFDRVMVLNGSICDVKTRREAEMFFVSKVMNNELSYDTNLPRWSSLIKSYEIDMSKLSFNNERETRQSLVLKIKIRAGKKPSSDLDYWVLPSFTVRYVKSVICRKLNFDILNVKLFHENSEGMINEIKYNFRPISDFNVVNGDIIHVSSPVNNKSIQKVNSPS


Key:
[1] = target: T1, Tubulin cofactor E (TBCE), S. cerevisiae Pac2p (S. cerevisiae); assay: negative-stain EM single-particle reconstruction; SEC purified complexes at 0.5 mg/ml in 50 mM HEPES, 100 mM KCl, 0.1 mM GTP, 3 mM β-mercaptoethanol; 1% uranyl formate; 24 Å maps with docked models of subunits or their homologs; both purified
[2] = target: Tubulin cofactor C (TBCC), S. cerevisiae Cin2p (S. cerevisiae) (UniProt P46670); assay: SEC-MALS; WTC-03S5 column; purified TBC-DEG (subunits co-expressed and co-purified), αβ-tubulin, TBCC and their complexes; ternary complex with GDP·ALFx (wild type) or GTP (Q73L); both purified

| Binder | binding [1] | binding [2] |
| --- | --- | --- |
| Arl2 Gln73Leu (Q73L), S. cerevisiae Cin4p, GTP-locked mutant (enzyme, UniProt P39110 1-191) MGLLSIIRKQKLRDKEIRCLILGLDNSGKSTIVNKLLPKDEQNNDGIMPTVGFQIHSLMIKDVTISLWDIGGLRTLRPFWDNYFDKTQAMIWCIDVSLSMRFDETLQELKELINRDENRIGYECAVIVVLNKIDLVEDKSELHRRCLLVESELKCLFKPDIRIELVKCSGVTGEGIDNLRDRLVESCHFTQ | binds |  |
| Tubulin cofactor C (TBCC), S. cerevisiae Cin2p (protein, UniProt P46670 1-268) MDFTAKIKELERELSETSDYKTLQKKTISLRSELNTLSHSLTSYEKEHFSNDIENVLKSINAKLSESKGKKRLFSFKQKNSSSAVHKNVERTELANAPAYTTTLKKHYVLEKGDSAFENLEFCTVTSTTDYSGNSALSGSLCFRNITKCVINLQRIFFQTGSIFITDCTDSIIFLRSPSDKDFQIRLRDLKNCKILIEKLSPSIDCKQVVIIENCHKCIFNASTRDHLIIQDFSNPFQSEETEDNSAFAFEDFDICNKDTMQLFRAYL |  | no binding |
